Test results: doi:10.1101/2021.10.15.464507
Results are given in words; binding and its absence hold for the method and conditions named. Binding seen in cells or lysates may run through a third protein. Some binding calls cover weakened binding; strength is not graded here. Where a sequence is shown, tags or fusion partners need not be part of it.

Amino acid sequences for entries named in this document (tags omitted).
UniProt P35222: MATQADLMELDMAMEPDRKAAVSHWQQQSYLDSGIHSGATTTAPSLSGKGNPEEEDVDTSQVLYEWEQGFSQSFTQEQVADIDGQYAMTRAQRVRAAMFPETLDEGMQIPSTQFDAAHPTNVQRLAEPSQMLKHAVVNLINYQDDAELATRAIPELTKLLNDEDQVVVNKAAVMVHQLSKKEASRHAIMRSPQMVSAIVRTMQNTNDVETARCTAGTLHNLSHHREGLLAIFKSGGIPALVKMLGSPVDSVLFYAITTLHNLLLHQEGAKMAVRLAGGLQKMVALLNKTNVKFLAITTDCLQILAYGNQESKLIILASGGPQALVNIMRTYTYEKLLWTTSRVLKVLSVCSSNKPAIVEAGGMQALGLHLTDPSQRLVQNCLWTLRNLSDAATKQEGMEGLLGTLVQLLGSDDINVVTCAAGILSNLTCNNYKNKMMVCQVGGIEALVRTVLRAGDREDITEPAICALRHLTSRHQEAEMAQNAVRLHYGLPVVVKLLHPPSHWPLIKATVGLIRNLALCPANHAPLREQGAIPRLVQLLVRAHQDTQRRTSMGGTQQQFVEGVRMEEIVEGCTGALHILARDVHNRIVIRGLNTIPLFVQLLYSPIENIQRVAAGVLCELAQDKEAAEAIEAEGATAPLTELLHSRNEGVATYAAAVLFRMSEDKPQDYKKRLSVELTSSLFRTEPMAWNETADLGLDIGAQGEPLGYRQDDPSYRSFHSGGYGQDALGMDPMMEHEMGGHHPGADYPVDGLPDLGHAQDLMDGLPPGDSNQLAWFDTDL

Target: NL-β-catenin (β-catenin with an N-terminal NanoLuc) (UniProt P35222)
Assay: FRET or BRET

B1: PTK7-HT (PTK7 with a C-terminal HaloTag) (receptor, UniProt Q13308 31-1070)
chain: AIVFIKQPSSQDALQGRRALLRCEVEAPGPVHVYWLLDGAPVQDTERRFAQGSSLSFAAVDRLQDSGTFQCVARDDVTGEEARSANASFNIKWIEAGPVVLKHPASEAEIQPQTQVTLRCHIDGHPRPTYQWFRDGTPLSDGQSNHTVSSKERNLTLRPAGPEHSGLYSCCAHSAFGQACSSQNFTLSIADESFARVVLAPQDVVVARYEEAMFHCQFSAQPPPSLQWLFEDETPITNRSRPPHLRRATVFANGSLLLTQVRPRNAGIYRCIGQGQRGPPIILEATLHLAEIEDMPLFEPRVFTAGSEERVTCLPPKGLPEPSVWWEHAGVRLPTHGRVYQKGHELVLANIAESDAGVYTCHAANLAGQRRQDVNITVATVPSWLKKPQDSQLEEGKPGYLDCLTQATPKPTVVWYRNQMLISEDSRFEVFKNGTLRINSVEVYDGTWYRCMSSTPAGSIEAQARVQVLEKLKFTPPPQPQQCMEFDKEATVPCSATGREKPTIKWERADGSSLPEWVTDNAGTLHFARVTRDDAGNYTCIASNGPQGQIRAHVQLTVAVFITFKVEPERTTVYQGHTALLQCEAQGDPKPLIQWKGKDRILDPTKLGPRMHIFQNGSLVIHDVAPEDSGRYTCIAGNSCNIKHTEAPLYVVDKPVPEESEGPGSPPPYKMIQTIGLSVGAAVAYIIAVLGLMFYCKKRCKAKRLQKQPEGEEPEMECLNGGPLQNGQPSAEIQEEVALTSLGSGPAATNKRHSTSDKMHFPRSSLQPITTLGKSEFGEVFLAKAQGLEEGVAETLVLVKSLQSKDEQQQLDFRRELEMFGKLNHANVVRLLGLCREAEPHYMVLEYVDLGDLKQFLRISKSKDEKLKSQPLSTKQKVALCTQVALGMEHLSNNRFVHKDLAARNCLVSAQRQVKVSALGLSKDVYNSEYYHFRQAWVPLRWMSPEAILEGDFSTKSDVWAFGVLMWEVFTHGEMPHGGQADDEVLADLQAGKARLPQPEGCPSKLYRLMQRCWALSPKDRPSFSEIASALGDSTVDSKP
modifications: HaloTag 618 ligand on the HaloTag
In the case of B1, the binding is reported as “binds”.
